Taken from: PubChem BioAssay AID504764 (Drosophila RNAi Screening Center, 2011)
The screen tested about 22,000 reagents; shown is a random part of those that have a named target and a result. Over the whole deposit, 403 (1.9%) were called active. 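Unnormalised raw counts per well; ratio z-scores behind the hit calls and whether each hit raises or lowers signal are not deposited.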 Unmarked entries are inactive. No sequences are given here. The record does not give: the amount of reagent.

- Screen: 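Knock-downs that raise or lower a Notch target reporter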 (primary screen)
- System: Drosophila Kc167 cells
- Reagent: long dsRNA against Drosophila genes
- Duration: about 5 days (4 days dsRNA, then 24 h after transfection)
- Conditions: transfection of constitutively active membrane-tethered Notch lacking the extracellular domain, read 24 h later
- Measured: 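Firefly luciferase from an E(spl)m3 reporter with active Notch, plus control-promoter and uninduced reporter wells for normalisation; unnormalised counts, duplicate wells a and b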
- Scale: induced reporter light, run 1, well a and induced reporter light, run 1, well b: higher = more light from the Notch target reporter with active Notch; control promoter light, run 1, well a and control promoter light, run 1, well b: higher = more light from the viral control promoter (cell number, transfection, viability); uninduced reporter light, run 1, well a: higher = more light from the Notch target reporter without active Notch
- Active means: 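Wells with low control signal or poorly matching duplicates excluded; duplicates averaged; per source plate, z beyond ±2 for induced/control log2 ratio or beyond ±1.8 for induced/uninduced marks a hit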
- Meaning of the calls: active = modifier hit (raised or lowered Notch signal); inactive = not a hit

With knock-down of CG31098 [SID104194051], the record shows induced reporter light, run 1, well a = 1.57e5; induced reporter light, run 1, well b = 1.42e5; control promoter light, run 1, well a = 1.78e5; control promoter light, run 1, well b = 1.72e5; uninduced reporter light, run 1, well a = 10788.
Against Sse (Separase) [SID104189538], the values are induced reporter light, run 1, well a = 78700; induced reporter light, run 1, well b = 92855; control promoter light, run 1, well a = 99860; control promoter light, run 1, well b = 36055; uninduced reporter light, run 1, well a = 12610.
LSm7 (Like Sm 7) [SID104182043] gave induced reporter light, run 1, well a = 1.29e5; induced reporter light, run 1, well b = 98610; control promoter light, run 1, well a = 1.15e5; control promoter light, run 1, well b = 1.43e5; uninduced reporter light, run 1, well a = 7390.
After knock-down of Hers (Histone gene-specific Epigenetic Repressor in late S phase) [SID104199221] the results were induced reporter light, run 1, well a = 1.47e5; induced reporter light, run 1, well b = 1.29e5; control promoter light, run 1, well a = 90445; control promoter light, run 1, well b = 50565; uninduced reporter light, run 1, well a = 9845.
Hers (Histone gene-specific Epigenetic Repressor in late S phase) [SID104199468] showed induced reporter light, run 1, well a = 73935; induced reporter light, run 1, well b = 96005; control promoter light, run 1, well a = 87295; control promoter light, run 1, well b = 1.07e5; uninduced reporter light, run 1, well a = 8360.
For sxe2 (sex-specific enzyme 2) [SID104195484], the entry reads induced reporter light, run 1, well a = 2.22e5; induced reporter light, run 1, well b = 2.13e5; control promoter light, run 1, well a = 2.80e5; control promoter light, run 1, well b = 3.07e5; uninduced reporter light, run 1, well a = 20370.
With knock-down of CG12241 [SID104194273], the screen gave induced reporter light, run 1, well a = 1.19e5; induced reporter light, run 1, well b = 94115; control promoter light, run 1, well a = 74560; control promoter light, run 1, well b = 79695; uninduced reporter light, run 1, well a = 7870.
Depletion of CG8089 [SID104186866] gave: induced reporter light, run 1, well a = 1.05e5; induced reporter light, run 1, well b = 1.09e5; control promoter light, run 1, well a = 1.29e5; control promoter light, run 1, well b = 1.18e5; uninduced reporter light, run 1, well a = 9455.
After knock-down of PGRP-LA (Peptidoglycan recognition protein LA) [SID104190119], the screen gave induced reporter light, run 1, well a = 2.04e5; induced reporter light, run 1, well b = 1.57e5; control promoter light, run 1, well a = 3.34e5; control promoter light, run 1, well b = 3.12e5; uninduced reporter light, run 1, well a = 12905.
For PGRP-LA (Peptidoglycan recognition protein LA) [SID104190206] the deposit lists induced reporter light, run 1, well a = 1.88e5; induced reporter light, run 1, well b = 1.42e5; control promoter light, run 1, well a = 2.71e5; control promoter light, run 1, well b = 2.09e5; uninduced reporter light, run 1, well a = 10910.
Knock-down of Prosalpha3 (Proteasome alpha3 subunit) [SID104184436] came out at: induced reporter light, run 1, well a = 5610; induced reporter light, run 1, well b = 5105; control promoter light, run 1, well a = 7615; control promoter light, run 1, well b = 5250; uninduced reporter light, run 1, well a = 735.
Nubp1 (NUBP iron-sulfur cluster assembly factor 1) [SID104182431] showed induced reporter light, run 1, well a = 1.88e5; induced reporter light, run 1, well b = 2.06e5; control promoter light, run 1, well a = 1.81e5; control promoter light, run 1, well b = 1.71e5; uninduced reporter light, run 1, well a = 18140.

No new results follow: 2 of the entries above.
CG31098 [SID104194051] — induced reporter light, run 1, well a: 1.57e5; induced reporter light, run 1, well b: 1.42e5; control promoter light, run 1, well a: 1.78e5; control promoter light, run 1, well b: 1.72e5; uninduced reporter light, run 1, well a: 10788
Sse (Separase) [SID104189538] — induced reporter light, run 1, well a: 78700; induced reporter light, run 1, well b: 92855; control promoter light, run 1, well a: 99860; control promoter light, run 1, well b: 36055; uninduced reporter light, run 1, well a: 12610
